Measurements from PubChem BioAssay AID1487 (National Center for Advancing Translational Sciences (NCATS), 2009).
Where “and” joins values, the source holds several entries; their conditions need not be identical. Equal entries are not always repeated. The list shows a part of the results. These are further read-outs of the screen, such as a control signal, another cell line or another target. No call is given for them. Most of these compounds were active or inconclusive in the main read-out, so they are no random draw. The note in brackets gives the kind of curve behind each potency; many fits are weak.

Experiment: qHTS Assay for Modulators of Lamin A Splicing
Conditions: HeLa LMNA splicing GFP/RFP minigene ratio, 48 h
Source text: NCGC Assay Overview: Hutchinson-Gilford Progeria Syndrome (HGPS) is a pediatric premature aging disease caused by a spontaneous mutation in the lamin A/C (LMNA) gene. The mutation activates a cryptic splice site in the LMNA pre-mRNA which results in production of a pre-lamin A protein that cannot be processed properly. The mutant protein accumulates in the nucleus and negatively affects numerous cellular functions. Correction of the splicing defect in HGPS patient cells using a targeted oligonucleotide (exo11) leads to reversal of the cellular disease phenotypes. To identify small molecule modulators of aberrant LMNA splicing, a homogenous assay was constructed in HeLa cells that used a GFP containing minigene to report on correction of aberrant splicing in lamin A and a RFP (DsRed2) to report on cell viability, uniformity and nonspecific effects on the assay signal. This assay was adapted to laser-scanning microplate cytometry (Acumen, TTP Labtech) where miniaturization of the assay to a 1,536-well plate format was possible. References: Bowen, W. P.; Wylie, P. G. Application of Laser-Scanning Fluorescence Microplate Cytometry in High Content Screening. Assay Drug Dev Technol 2006;4:209-221. Scaffidi P, Misteli T. Reversal of the cellular phenotype in the premature aging disease Hutchinson-Gilford progeria syndrome. Nat.
NCGC Assay Protocol Summary: Reagents/Controls: Stable clones expressing DsRed2 and lamin A-EGFP were generated by Cell and Molecular Technologies in S3 HeLa cells. HeLa cells were prepared for the assay when they were 70-90% confluent. The cells were counted and resuspended in Opti-MEM I (no phenol red; Gibco), 2% FBS, 1% penicillin/ streptomycin (Gibco) at concentration of 120 cells/uL concentration. The suspension was passed through a Falcon basket filter with pore size 40um (Beckton Dickson). Control titrations: column […] 1536-well plate contained a sixteen point titration (1:2 dilutions) in duplicate of ancitabine (Sigma: A8598) beginning at 40 uM final concentration. Column 2 contained a sixteen point titration (1:2 dilutions) of cycloheximide beginning at 1.4 mM final concentration. Column 3 contained ancitabine at 40 uM and column 4 contained was the vehicle control (0.5% DMSO final concentration). Assay Steps: 5 uL of HeLa cells were plated in Aurora LoBase black clear bottom (cyclic-olefin polymer) 1536-well plates at a final density of 600 cells/well. Controls and library compounds were added with a 1536-well pin array using the Kalypsys pin-tool. The plates were then incubated for 48 hrs in a cell-culture incubator (37 °C; 5% CO2, 98% humidity). Following incubation the plates were read on the Acumen Explorer using the 488 nm laser. Data was collected on objects between 10 and 100 um in size. Cell objects were defined by a 15 um width x 10 um depth filter. The ratio of the total object intensity in PMT1 (500-530 nm emission; GFP) over PMT3 (575-640 nm emission; RFP) was calculated for analysis. Keywords: NIH Roadmap, MLSCN, MLI, MLSMR, qHTS, NCGC, lamin A, Progeria, RNA splicing.

[1] = measured here: GFP splicing reporter channel
[2] = measured here: RFP viability control channel

SMILES | AC50 [1] | AC50 [2]
COc1ccc2c3c1O[C@H]1C(=O)CC[C@@]4(O)C(C2)N(CC2CC2)CCC314 (stereo partly drawn) | 35.5 µM [falling, single point] | 15.8 µM [falling, partial curve, poor fit]
c1ccc(C(c2ccccc2)N2CCN(c3ccc4ccccc4n3)CC2)cc1 | 35.5 µM [rising, single point] | 35.5 µM [rising, partial curve]
Cc1cccc(OP(=O)(NCc2ccccc2)Oc2cccc(C)c2)c1 | – | 14.1 µM [rising, single point]
CCCC(C)C1(CC)C(=O)NC(=Nc2ccccc2)NC1=O (stereo not drawn) | – | 31.6 µM [rising, single point]
COc1ccc(-c2nc3ccccc3c(=O)o2)cc1 | 0.00708 µM [falling, full curve, poor fit] | 0.00501 µM [falling, full curve, poor fit]
COc1ccc(OCC(=O)N2CCN(Cc3c[nH]c4ccccc34)CC2)cc1 | – | 12.6 µM [rising, partial curve]
O=[N+]([O-])c1cccc(C2N3CCCN23)c1 (stereo not drawn) | – | 0.158 µM [rising, full curve, poor fit]
Clc1ccc(C(c2ccc(Cl)cc2)C(Cl)(Cl)Cl)cc1 | 0.00224 µM [falling, full curve, poor fit] | 0.501 µM [falling, partial curve, poor fit]
COc1ccc(N2C(=O)NC(=O)/C(=C\c3ccc([N+](=O)[O-])s3)C2=O)cc1 | – | 10 µM [rising, partial curve]
OC(c1ccccc1)(c1ccccc1)C1CCNCC1 | 5.01 µM [falling, partial curve, poor fit] | 3.55 µM [falling, full curve, poor fit]
S=c1[nH]nc(-c2ccco2)n1Cc1ccccc1 | – | 28.2 µM [falling, single point]
CCc1ccc(CN2CCCC(C(=O)c3sccc3C)C2)o1 (stereo not drawn) | – | 0.0224 µM [falling, full curve, poor fit]
CC1=CC(=O)C2=C(C)C[C@@H](O)[C@@H]3[C@@H](OC(=O)[C@H]3C)[C@H]12 | 0.0631 µM [falling, single point] | 0.0708 µM [falling, single point]
C[C@]12CCC(=O)C=C1CC[C@@H]1[C@@H]2CC[C@]2(C)C(=O)CC[C@@H]12 | 6.31 µM [falling, single point] | 10 µM [rising, partial curve] and 25.1 nM [rising, full curve, poor fit]
O=C(CSc1nnc(NC(=O)C2CCCCC2)s1)NCc1ccco1 | 0.0224 µM [falling, full curve, poor fit] | 0.0251 µM [falling, full curve]
CN(C)CCC=C1c2ccccc2CCc2ccccc21 | 0.00501 µM [falling, full curve, poor fit] | 1.41 µM [rising, partial curve, poor fit]
Cc1ccnc2c1NC(=O)c1cccnc1N2C1CC1 | 0.158 µM [rising, full curve, poor fit] | 0.0355 µM [rising, full curve, poor fit]
CC(C)NS(=O)(=O)c1ccc(OCC(=O)N2CCN(Cc3ccc4c(c3)OCO4)CC2)c(Cl)c1 | – | 17.8 µM [rising, partial curve]
NC(=O)OCCCc1ccccc1 | 0.00224 µM [falling, full curve, poor fit] | 0.0794 µM [falling, full curve, poor fit]
CC[C@H]1CN2CCc3cc(OC)c(OC)cc3[C@H]2C[C@@H]1C[C@@H]1NCCc2cc(OC)c(OC)cc21 | 0.501 µM [falling, full curve] | 0.794 µM [falling, full curve]
O=c1oc2ccccc2c(O)c1C(c1ccccn1)c1c(O)c2ccccc2oc1=O | 12.6 µM [falling, partial curve] | 39.8 µM [falling, partial curve, poor fit]
CCOc1c(Cl)cc(CNC(C)C(O)c2ccccc2)cc1OC (stereo not drawn) | 0.00447 µM [falling, full curve, poor fit] | 0.00316 µM [falling, full curve, poor fit]
NC1CCc2cc(O)c(O)cc2C1 (stereo not drawn) | 5.62 µM [falling, partial curve, poor fit] | –
Cc1ccc(N2C(=O)NC(=O)/C(=C/c3cnc(-c4ccccc4)nc3)C2=O)cc1C | – | 2 µM [falling, partial curve, poor fit]
Cn1c(=O)oc2cc(S(=O)(=O)N3CCOCC3)ccc21 | – | 0.158 µM [rising, full curve, poor fit]
CCOP(=O)(OCC)C(c1ccccc1)N(C)C=O (stereo not drawn) | 0.2 µM [falling, partial curve, poor fit] | 0.0251 µM [falling, full curve, poor fit]

Entries of single compounds as entered above.
OC(c1ccccc1)(c1ccccc1)C1CCNCC1 is listed with AC50 [1]: 5.01 µM [falling, partial curve, poor fit]; AC50 [2]: 3.55 µM [falling, full curve, poor fit]
S=c1[nH]nc(-c2ccco2)n1Cc1ccccc1 is listed with AC50 [2]: 28.2 µM [falling, single point]

Next part:

SMILES | AC50 [1] | AC50 [2]
CC(C)OCCCNC(=O)c1c(N)n(Cc2cccs2)c2nc3ccccc3nc12 | 35.5 µM [falling, single point] | 35.5 µM [falling, single point]
C[C@H]1OC[C@@H](C[N+](C)(C)C)O1 | 0.00501 µM [falling, full curve, poor fit] | –
C=CC1CN2CCC1CC2C(OC(=O)OCC)c1ccnc2ccc(OC)cc12 (stereo not drawn) | 0.447 µM [falling, full curve, poor fit] | 0.398 µM [falling, single point]
COc1cc2c(cc1O)C[C@H]1c3c(cc(O)c(OC)c3-2)CCN1C | 0.316 µM [falling, single point] | 0.316 µM [falling, single point]
O=C(NC1(C(F)(F)F)Oc2ccccc2O1)N1CCC2(CC1)OCCO2 | – | 15.8 µM [rising, single point]
Cc1nn(Cc2ccccc2Cl)c(Cl)c1C(=O)OC(C(=O)NC(N)=O)C(C)C (stereo not drawn) | 1.78 µM [rising, partial curve] | –
CCC1(CC)C(=O)NC(=O)NC1=O | 17.8 µM [falling, single point] | 15.8 µM [falling, partial curve]
COCCOC(=O)c1c(N)n(Cc2ccco2)c2nc3ccccc3nc12 | – | 14.1 µM [rising, single point]
CCN1C(=O)C(=Cc2ccc(C)s2)C(=O)N(CC)C1=S | – | 3.16 µM [falling, single point]
CCCCn1c(O)c(C(C)=Nc2ccc(OCC)cc2)c(=O)[nH]c1=O | – | 35.5 µM [rising, single point]
O=C(CCCN1CCC(n2c(=O)[nH]c3ccccc32)CC1)c1ccc(F)cc1 | 1.78 µM [falling, full curve, poor fit] | 1.58 µM [falling, single point]
CCOC(=O)c1c(C)n(Cc2ccccc2)c2ccc(O)cc12 | 0.0447 µM [falling, full curve, poor fit] | 0.0447 µM [falling, full curve, poor fit]
O=C1CCO1 | 1.26 µM [falling, single point] | 35.5 µM [falling, single point]
COc1ccc(CN2CCN(c3ccccc3)CC2)c(C)c1C | – | 11.2 µM [rising, partial curve]
C/C(CC(c1ccccc1)c1c(O)c2ccccc2oc1=O)=N\NC(N)=S (stereo not drawn) | – | 0.178 µM [falling, full curve]
CCc1ccccc1NC(=O)Nc1cc(C(=O)NCc2ccc(C(C)C)cc2)ccc1N1CCCC1 | 35.5 µM [falling, single point] | 11.2 µM [falling, partial curve, poor fit]
COc1cc2c3cc1Oc1cc(ccc1O)C[C@@H]1c4c(cc(OC)c(O)c4Oc4cccc(c4)C[C@H]3N(C)CC2)CC[N+]1(C)C | 0.00708 µM [falling, full curve, poor fit] | 0.00708 µM [falling, full curve, poor fit]
O=C(CNC(=O)c1cccc(Cl)c1)Nc1ccc(Br)cc1C(=O)c1ccccc1 | – | 31.6 µM [rising, single point]
CCC(=O)OC1(c2ccccc2)CCN(C)CC1C (stereo not drawn) | – | 0.0251 µM [falling, full curve, poor fit]
C[N+]1(C)C2CCC1CC(OC(=O)c1c[nH]c3ccccc13)C2 (stereo not drawn) | 35.5 µM [falling, single point] | 25.1 µM [falling, single point]
CCOP(=O)(OCC)C(NS(=O)(=O)c1ccccc1)C(Cl)(Cl)Cl (stereo not drawn) | 2.82 µM [falling, full curve] | 2.51 µM [falling, full curve]
COCCCn1c(-c2ccc(OC)cc2)cc(C(=O)NC2CCCCCCC2)c1C | 35.5 µM [rising, single point] | 35.5 µM [rising, single point]
C[C@]12CC[C@@H]3C(=CCc4cc(O)ccc43)[C@@H]1CCC2=O | – | 14.1 µM [falling, single point]
CC(=O)Nc1cc(C(=O)N2CCC3(CC2)OCCO3)ccc1Sc1ccc(F)cc1 | 0.141 µM [rising, full curve, poor fit] | –
OC(CCCN1CCC(O)(c2ccc(Cl)cc2)CC1)c1ccc(F)cc1 (stereo not drawn) | – | 15.8 µM [rising, single point]
